Publication PMC12439152
These are yes or no findings as the source states them, for the method shown. In cells and extracts the contact can be indirect. Some results given as binding are weak or reduced against the parent protein; the word gives no strength.

Chains of the proteins cited; added tags and fusions are not shown.
UniProt Q9Y572: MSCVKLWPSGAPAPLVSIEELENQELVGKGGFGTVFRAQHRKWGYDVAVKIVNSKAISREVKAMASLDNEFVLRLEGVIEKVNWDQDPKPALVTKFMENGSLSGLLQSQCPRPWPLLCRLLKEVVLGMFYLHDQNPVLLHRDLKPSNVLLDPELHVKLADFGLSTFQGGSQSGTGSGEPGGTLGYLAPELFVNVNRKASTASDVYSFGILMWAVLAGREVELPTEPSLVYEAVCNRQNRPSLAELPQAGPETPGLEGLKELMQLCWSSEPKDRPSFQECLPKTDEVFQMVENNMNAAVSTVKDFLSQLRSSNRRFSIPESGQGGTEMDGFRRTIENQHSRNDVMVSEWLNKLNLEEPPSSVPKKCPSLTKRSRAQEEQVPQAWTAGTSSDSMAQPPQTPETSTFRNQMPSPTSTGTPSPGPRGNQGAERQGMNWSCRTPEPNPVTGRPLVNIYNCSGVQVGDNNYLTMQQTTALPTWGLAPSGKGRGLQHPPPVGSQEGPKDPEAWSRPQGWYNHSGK

Molecular target: T1, acid-sensitive ion channel ASIC1a (human (endogenous in RA-FLSs)) (UniProt P78348)
T1 sequence: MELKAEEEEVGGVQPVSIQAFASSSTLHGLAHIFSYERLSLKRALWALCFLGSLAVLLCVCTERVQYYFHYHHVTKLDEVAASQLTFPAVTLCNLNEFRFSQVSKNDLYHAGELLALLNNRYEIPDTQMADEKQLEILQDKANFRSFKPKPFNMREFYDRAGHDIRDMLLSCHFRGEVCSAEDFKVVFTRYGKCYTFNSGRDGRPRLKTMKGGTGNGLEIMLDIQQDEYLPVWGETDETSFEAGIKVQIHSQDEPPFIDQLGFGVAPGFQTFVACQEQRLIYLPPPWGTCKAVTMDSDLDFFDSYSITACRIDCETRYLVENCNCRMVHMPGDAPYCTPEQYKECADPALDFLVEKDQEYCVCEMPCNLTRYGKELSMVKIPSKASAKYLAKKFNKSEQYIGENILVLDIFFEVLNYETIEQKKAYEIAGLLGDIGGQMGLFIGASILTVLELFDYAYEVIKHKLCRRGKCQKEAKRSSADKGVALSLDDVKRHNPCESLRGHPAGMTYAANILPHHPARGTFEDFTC
Test: co-IP; RA-FLSs (pH 7.4 or pH 6.8 medium) lysed in weak lysis buffer; lysate incubated with anti-ASIC1a antibody or IgG, protein A/G, 4 C overnight, six washes; Western blot

Substance: RIPK3 (from UniProt Q9Y572 1-518)
- binding: binds
